The list shows a part of the results.
Assays:
Experiment in all cases: log2 fold change, soluble protein after heating vs DMSO (PISA); higher = thermal stabilisation; K562 cells, 10 uM, 30 min; active = over 0.2 and 3.5 SD of the protein, either way, in both replicates (recomputed)
[1] = compound: COC1=CC=C(C=C1)CN2C=CC3=C2C=C(C=C3)C(=O)NO
Method in brief: (§1)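 K562 cells at 2×10^6 cells/mL were given 10 μM compound for 30 min. Aliquots then went through 3 min of heating across 48°C-58°C, were pooled, and were extracted in PBS with 0.5% NP-40 at 4°C, and the supernatant after 21,000xg for 90 min was quantified by TMTpro 16plex LC-MS/MS with channel sums equalised. Thermal stability relative to control samples, from duplicates, is given as log2 fold change.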

Amino acid sequences for entries named in this document (tags omitted). A change or cut given only in a name is not applied to a line headed by its entry.
UniProt Q96BQ5: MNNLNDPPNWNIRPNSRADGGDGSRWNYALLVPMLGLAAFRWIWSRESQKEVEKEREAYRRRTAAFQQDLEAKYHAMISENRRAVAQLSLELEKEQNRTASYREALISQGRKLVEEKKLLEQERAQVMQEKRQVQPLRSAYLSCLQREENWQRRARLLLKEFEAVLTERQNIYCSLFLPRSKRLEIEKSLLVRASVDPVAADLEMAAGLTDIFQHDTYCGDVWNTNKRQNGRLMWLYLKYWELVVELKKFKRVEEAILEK
UniProt P30260, whole entry, looked up: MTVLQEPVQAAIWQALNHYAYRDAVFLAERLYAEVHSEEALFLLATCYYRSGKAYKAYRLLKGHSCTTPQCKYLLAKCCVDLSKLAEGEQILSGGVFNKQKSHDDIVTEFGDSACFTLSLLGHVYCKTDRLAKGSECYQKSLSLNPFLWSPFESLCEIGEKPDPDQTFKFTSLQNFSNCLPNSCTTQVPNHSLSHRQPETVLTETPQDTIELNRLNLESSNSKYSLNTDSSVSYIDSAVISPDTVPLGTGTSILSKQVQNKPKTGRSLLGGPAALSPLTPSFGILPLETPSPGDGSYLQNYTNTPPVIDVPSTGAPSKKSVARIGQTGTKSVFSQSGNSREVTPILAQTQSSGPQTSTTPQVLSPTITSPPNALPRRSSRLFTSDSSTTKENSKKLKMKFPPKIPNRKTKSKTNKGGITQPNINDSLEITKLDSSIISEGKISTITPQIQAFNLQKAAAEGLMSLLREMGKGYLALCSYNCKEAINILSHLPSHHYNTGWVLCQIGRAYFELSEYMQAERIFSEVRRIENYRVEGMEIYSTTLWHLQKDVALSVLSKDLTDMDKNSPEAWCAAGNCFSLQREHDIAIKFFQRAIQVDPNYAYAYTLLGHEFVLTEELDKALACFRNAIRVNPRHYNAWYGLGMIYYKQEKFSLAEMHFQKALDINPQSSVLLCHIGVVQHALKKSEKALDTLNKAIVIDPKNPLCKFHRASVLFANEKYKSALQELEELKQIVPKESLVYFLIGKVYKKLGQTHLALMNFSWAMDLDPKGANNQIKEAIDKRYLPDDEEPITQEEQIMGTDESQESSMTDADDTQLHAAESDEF
UniProt P49368: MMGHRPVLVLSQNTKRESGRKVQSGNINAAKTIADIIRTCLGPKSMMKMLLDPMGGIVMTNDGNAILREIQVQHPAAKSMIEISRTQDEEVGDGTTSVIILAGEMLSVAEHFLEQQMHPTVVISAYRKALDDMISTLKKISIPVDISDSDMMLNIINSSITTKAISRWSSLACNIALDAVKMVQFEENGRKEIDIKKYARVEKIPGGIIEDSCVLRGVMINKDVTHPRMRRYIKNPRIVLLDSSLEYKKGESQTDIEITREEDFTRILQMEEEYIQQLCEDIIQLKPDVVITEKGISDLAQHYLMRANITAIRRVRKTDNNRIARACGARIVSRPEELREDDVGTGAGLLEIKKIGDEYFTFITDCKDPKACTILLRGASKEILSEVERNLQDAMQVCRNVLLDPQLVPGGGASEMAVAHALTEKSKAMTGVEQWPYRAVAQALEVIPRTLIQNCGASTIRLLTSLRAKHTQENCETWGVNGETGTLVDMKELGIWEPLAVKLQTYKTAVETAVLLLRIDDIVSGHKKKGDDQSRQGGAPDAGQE
UniProt Q96A33: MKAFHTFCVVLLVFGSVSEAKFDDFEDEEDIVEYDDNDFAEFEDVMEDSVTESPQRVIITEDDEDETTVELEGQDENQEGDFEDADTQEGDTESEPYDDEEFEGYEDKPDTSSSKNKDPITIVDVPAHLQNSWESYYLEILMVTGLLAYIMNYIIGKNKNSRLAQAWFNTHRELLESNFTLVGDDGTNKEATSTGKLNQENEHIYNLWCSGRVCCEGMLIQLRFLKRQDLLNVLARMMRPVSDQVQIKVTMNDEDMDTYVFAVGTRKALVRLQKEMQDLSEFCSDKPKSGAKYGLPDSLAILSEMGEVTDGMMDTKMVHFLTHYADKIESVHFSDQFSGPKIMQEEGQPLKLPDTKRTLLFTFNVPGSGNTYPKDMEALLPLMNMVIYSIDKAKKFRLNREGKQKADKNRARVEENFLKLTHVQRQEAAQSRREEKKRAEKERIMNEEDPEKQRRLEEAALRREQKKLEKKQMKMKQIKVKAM
UniProt O60508: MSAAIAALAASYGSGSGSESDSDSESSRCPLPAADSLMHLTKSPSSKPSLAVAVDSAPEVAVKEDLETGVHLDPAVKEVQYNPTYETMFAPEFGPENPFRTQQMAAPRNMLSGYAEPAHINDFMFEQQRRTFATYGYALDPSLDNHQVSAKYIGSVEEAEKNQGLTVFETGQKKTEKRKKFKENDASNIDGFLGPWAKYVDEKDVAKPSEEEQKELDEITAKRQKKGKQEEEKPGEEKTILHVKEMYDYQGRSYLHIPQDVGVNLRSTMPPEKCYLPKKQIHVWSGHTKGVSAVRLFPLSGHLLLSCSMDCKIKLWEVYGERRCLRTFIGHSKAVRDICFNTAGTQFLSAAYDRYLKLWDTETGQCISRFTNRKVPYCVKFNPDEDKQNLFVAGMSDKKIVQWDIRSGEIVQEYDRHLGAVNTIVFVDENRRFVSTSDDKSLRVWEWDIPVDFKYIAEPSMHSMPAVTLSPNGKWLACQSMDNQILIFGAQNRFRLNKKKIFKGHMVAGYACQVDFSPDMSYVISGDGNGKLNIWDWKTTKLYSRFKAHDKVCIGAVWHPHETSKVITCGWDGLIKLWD
UniProt Q86WR0: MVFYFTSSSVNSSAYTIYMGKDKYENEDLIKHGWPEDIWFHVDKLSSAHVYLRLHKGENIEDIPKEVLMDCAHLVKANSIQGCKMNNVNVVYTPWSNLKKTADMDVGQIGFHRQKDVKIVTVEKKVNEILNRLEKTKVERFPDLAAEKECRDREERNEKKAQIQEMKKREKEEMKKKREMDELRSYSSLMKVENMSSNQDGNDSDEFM
UniProt P15529: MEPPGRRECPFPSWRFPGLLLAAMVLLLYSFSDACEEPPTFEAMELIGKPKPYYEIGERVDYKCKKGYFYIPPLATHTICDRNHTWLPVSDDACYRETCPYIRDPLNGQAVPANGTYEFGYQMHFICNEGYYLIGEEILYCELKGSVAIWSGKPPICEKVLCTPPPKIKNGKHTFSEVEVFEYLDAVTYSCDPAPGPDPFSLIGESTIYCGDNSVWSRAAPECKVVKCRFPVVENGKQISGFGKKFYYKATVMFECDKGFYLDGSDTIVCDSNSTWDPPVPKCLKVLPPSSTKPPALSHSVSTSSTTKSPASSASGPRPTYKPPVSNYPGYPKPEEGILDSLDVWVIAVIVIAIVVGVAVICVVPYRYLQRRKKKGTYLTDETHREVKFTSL
UniProt Q9BV29: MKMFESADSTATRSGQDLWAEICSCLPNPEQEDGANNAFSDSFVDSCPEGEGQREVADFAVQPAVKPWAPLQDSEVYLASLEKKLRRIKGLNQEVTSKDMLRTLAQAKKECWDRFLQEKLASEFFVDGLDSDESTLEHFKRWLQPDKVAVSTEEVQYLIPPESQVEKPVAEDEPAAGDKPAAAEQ
UniProt Q8IVM0: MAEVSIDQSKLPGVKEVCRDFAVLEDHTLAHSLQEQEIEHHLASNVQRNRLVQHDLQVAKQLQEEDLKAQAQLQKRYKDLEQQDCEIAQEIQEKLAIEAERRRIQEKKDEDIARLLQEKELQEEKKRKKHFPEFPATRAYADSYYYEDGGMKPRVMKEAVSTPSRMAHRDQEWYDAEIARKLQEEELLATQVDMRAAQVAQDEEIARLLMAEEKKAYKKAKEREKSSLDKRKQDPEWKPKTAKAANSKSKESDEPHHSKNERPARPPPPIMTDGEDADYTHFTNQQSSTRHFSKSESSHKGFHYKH
UniProt P19256, whole entry, looked up: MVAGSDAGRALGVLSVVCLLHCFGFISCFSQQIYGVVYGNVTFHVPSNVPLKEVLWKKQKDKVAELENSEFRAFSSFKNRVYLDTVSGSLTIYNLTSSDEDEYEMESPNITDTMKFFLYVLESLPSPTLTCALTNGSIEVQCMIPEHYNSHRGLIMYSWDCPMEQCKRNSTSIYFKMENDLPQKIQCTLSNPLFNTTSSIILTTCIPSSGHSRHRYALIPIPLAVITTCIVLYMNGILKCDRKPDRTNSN
UniProt P50990: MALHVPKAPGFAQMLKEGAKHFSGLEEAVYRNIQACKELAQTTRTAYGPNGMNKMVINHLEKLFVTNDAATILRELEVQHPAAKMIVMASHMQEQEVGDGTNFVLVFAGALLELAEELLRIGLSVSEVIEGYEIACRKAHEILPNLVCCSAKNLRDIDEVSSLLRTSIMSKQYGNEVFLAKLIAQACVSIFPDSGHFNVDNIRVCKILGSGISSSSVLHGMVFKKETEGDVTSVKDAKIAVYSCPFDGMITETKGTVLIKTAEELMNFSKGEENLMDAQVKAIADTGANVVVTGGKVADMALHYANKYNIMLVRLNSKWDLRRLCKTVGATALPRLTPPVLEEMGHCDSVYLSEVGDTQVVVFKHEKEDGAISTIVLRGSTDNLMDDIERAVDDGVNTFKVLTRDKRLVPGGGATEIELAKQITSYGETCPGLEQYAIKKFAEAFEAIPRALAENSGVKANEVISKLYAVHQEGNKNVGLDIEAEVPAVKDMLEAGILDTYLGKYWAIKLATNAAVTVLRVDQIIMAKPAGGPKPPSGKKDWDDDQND
UniProt O95810: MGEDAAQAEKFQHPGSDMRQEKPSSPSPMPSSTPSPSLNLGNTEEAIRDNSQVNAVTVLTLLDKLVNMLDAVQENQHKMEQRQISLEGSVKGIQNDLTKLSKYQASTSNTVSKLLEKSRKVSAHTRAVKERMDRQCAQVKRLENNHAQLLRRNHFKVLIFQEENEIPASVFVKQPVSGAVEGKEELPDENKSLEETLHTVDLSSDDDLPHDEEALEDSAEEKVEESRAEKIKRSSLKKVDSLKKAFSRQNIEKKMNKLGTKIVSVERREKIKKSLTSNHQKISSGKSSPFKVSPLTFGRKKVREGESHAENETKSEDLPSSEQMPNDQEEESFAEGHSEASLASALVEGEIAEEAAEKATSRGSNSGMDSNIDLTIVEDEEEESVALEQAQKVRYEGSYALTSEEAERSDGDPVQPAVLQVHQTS
UniProt Q9NPF0: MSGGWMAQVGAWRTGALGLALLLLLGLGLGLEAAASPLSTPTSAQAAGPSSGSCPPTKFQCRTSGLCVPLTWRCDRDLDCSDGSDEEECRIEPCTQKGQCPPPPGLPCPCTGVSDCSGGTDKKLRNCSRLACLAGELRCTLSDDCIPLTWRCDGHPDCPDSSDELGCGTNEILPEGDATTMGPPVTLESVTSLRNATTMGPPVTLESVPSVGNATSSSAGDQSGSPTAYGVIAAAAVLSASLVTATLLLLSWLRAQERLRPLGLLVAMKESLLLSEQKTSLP
UniProt O14618: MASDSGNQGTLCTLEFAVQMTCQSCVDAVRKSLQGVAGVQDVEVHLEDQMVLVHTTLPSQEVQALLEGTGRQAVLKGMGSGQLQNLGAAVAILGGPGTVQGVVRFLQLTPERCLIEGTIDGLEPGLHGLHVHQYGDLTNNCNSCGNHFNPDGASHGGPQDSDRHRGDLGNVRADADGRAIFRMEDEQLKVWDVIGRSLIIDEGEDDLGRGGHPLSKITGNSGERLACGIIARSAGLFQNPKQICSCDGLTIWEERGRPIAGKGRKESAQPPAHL
UniProt P48960: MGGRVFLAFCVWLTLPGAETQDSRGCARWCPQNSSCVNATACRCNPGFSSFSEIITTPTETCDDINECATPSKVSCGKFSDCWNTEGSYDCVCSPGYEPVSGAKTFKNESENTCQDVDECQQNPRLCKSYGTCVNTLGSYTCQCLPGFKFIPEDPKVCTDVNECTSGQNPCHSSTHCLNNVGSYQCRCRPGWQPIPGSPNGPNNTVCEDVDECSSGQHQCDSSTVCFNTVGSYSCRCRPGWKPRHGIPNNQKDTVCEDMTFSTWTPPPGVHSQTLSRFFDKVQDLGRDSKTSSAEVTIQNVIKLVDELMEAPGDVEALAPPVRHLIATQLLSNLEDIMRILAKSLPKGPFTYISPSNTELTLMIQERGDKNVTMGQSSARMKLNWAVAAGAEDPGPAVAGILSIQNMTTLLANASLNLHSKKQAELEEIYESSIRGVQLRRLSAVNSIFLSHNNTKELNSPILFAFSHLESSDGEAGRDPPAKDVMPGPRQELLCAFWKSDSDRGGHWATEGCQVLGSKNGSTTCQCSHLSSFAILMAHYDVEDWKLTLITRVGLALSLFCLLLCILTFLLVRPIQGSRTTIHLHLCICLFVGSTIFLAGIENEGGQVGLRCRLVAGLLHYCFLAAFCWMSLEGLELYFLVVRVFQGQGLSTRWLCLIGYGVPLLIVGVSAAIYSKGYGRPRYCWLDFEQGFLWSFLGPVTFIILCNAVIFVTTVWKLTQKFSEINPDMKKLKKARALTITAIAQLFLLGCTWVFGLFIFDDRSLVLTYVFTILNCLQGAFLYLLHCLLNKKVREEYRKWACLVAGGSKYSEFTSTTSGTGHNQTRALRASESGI

[2] = compound: CON(C)C(=O)N1N=C(c2cc(F)ccc2F)S[C@@]1(CCCN)c1ccccc1 [filanesib]
Method in brief: as §1

[3] = compound: CO[C@H]1C[C@@H]2CC[C@@H](C)[C@@](O)(O2)C(=O)C(=O)N2CCCC[C@H]2C(=O)O[C@H]([C@H](C)C[C@@H]2CC[C@H](n3cnnn3)[C@H](OC)C2)CC(=O)[C@H](C)/C=C(\C)[C@@H](O)[C@@H](OC)C(=O)[C@H](C)C[C@H](C)/C=C/C=C/C=C/1C [zotarolimus]
Method in brief: as §1

[4] = compound: COc1cc(C(=O)O)ccc1NC(=O)[C@@H]1N[C@@H](CC(C)(C)C)[C@](C#N)(c2ccc(Cl)cc2F)[C@H]1c1cccc(Cl)c1F [idasanutlin]
Method in brief: as §1

[5] = compound: COc1cc(Nc2ncc3c(n2)-c2ccc(Cl)cc2C(c2c(F)cccc2OC)=NC3)ccc1C(=O)O [alisertib]
Method in brief: as §1

[6] = compound: COc1cc2nc(-c3cc(F)ccc3O)nc(N[C@@H]3CNC[C@H]3C(C)(C)O)c2cc1OC
Method in brief: as §1

[7] = compound: COc1cc2ncnc(Nc3ccc(F)c(Cl)c3)c2cc1OCCCN1CCOCC1 [gefitinib]
Method in brief: as §1

[8] = compound: COc1cccc2cc(-c3nc([C@H]4CC[C@H](C(=O)O)CC4)n4ncnc(N)c34)[nH]c12
Method in brief: as §1

[9] = compound: CS(=O)(=O)CCNCc1ccc(-c2ccc3ncnc(Nc4ccc(OCc5cccc(F)c5)c(Cl)c4)c3c2)o1 [lapatinib]
Method in brief: as §1

[10] = compound: CS(=O)(=O)N1CCN(Cc2cc3nc(-c4cccc5[nH]ncc45)nc(N4CCOCC4)c3s2)CC1 [pictilisib]
Method in brief: as §1

[11] = compound: CS(=O)(=O)c1ccc(-c2cnc(N)c(C(=O)Nc3ccccc3)n2)cc1
Method in brief: as §1

[12] = compound: C[C@@H](Oc1cc(-c2cnn(C3CCNCC3)c2)cnc1N)c1c(Cl)ccc(F)c1Cl [crizotinib]
Method in brief: as §1

[13] = compound: C[C@@H]1COCCN1C2=NC(=NC(=C2)C3(CC3)S(=O)(=O)C)C4=C5C=CNC5=CC=C4
Method in brief: as §1

[14] = compound: C[C@H](C1=CC=C(C=C1)C(=O)NC2=C3C=CNC3=NC=C2)N
Method in brief: as §1

[15] = compound: C[C@H](Nc1ncnc2nc[nH]c12)c1cc2cccc(Cl)c2c(=O)n1-c1ccccc1 [duvelisib]
Method in brief: as §1

[16] = compound: Cc1cc(Nc2cc(CN3CCOCC3)c3nc(C)c(Cc4ccc(Cl)cc4F)n3n2)n[nH]1 [gandotinib]
Method in brief: as §1

[17] = compound: Cc1cc(Nc2cc(N3CCN(C)CC3)nc(Sc3ccc(NC(=O)C4CC4)cc3)n2)n[nH]1 [tozasertib]
Method in brief: as §1

[18] = compound: Cc1cc(SCc2sc(-c3ccc(C(F)(F)F)cc3)nc2C)ccc1OCC(=O)O
Method in brief: as §1

[19] = compound: Cc1ccc(-n2nc(C(C)(C)C)cc2NC(=O)Nc2ccc(OCCN3CCOCC3)c3ccccc23)cc1 [doramapimod]
Method in brief: as §1

[20] = compound: Cc1ccc(C(=O)N(CCCN)[C@@H](c2nc3cc(Cl)ccc3c(=O)n2Cc2ccccc2)C(C)C)cc1 [ispinesib]
Method in brief: as §1

Measured: log2 fold change

CCDC127 (UniProt Q96BQ5)
inactive: [1] -0.024 | [2] 0.002 | [3] 0.027 | [4] 0.031 | [5] 0.012 | [6] 0.164 | [7] 0.019 | [8] -0.057 | [9] 0.048 | [10] 0.001 | [11] -0.013 | [12] 0.053 | [13] 0.016 | [14] 0.078 | [15] 0.036 | [16] 0 | [17] -0.068 | [18] -0.013 | [19] 0.056 | [20] 0.083

CDC27 isoform 2 (UniProt P30260)
inactive: [1] -0.066 | [2] 0.039 | [3] 0.031 | [4] 0.013 | [5] -0.029 | [6] -0.013 | [7] 0.005 | [8] -0.031 | [9] 0.059 | [10] -0.015 | [11] 0.016 | [12] -0.017 | [13] -0.019 | [14] 0.047 | [15] -0.033 | [16] -0.002 | [17] 0.043 | [18] 0.056 | [19] 0.043 | [20] 0.015

CCT3 (UniProt P49368)
inactive: [1] -0.008 | [2] 0.026 | [3] 0.009 | [4] -0.014 | [5] -0.078 | [6] 0.003 | [7] -0.02 | [8] 0.008 | [9] -0.043 | [10] -0.007 | [11] 0.015 | [12] 0.023 | [13] 0.02 | [14] -0.001 | [15] 0.001 | [16] 0.019 | [17] -0.004 | [18] -0.015 | [19] -0.041 | [20] 0.026

CCDC47 (UniProt Q96A33)
inactive: [1] 0.168 | [2] 0.005 | [3] -0.005 | [4] -0.058 | [5] -0.031 | [6] 0.008 | [7] -0.034 | [8] 0.014 | [9] -0.081 | [10] 0.018 | [11] 0.03 | [12] -0.026 | [13] 0.067 | [14] 0.01 | [15] 0.024 | [16] -0.077 | [17] 0.008 | [18] 0.006 | [19] 0.036 | [20] -0.043

CDC40 (UniProt O60508)
inactive: [1] -0.253 | [2] 0.471 | [3] -0.071 | [4] 0.295 | [5] -0.045 | [6] -0.224 | [7] -0.108 | [8] -0.207 | [9] 0.12 | [10] 0.03 | [11] -0.059 | [12] 0.139 | [13] -0.415 | [14] 0.345 | [15] -0.129 | [16] 0.503 | [17] 0.11 | [18] -0.027 | [19] 0.155

CCDC25 (UniProt Q86WR0)
inactive: [1] 0.105 | [2] -0.028 | [3] 0.002 | [4] -0.043 | [5] -0.043 | [6] 0.04 | [7] -0.003 | [8] 0.068 | [9] -0.033 | [10] -0.004 | [11] 0.073 | [12] -0.141 | [13] 0.105 | [14] -0.01 | [15] 0.079 | [16] -0.018 | [17] -0.07 | [18] 0.133 | [19] -0.055 | [20] -0.031

CD46 isoform 2 (UniProt P15529)
inactive: [1] -0.005 | [2] 0.057 | [3] -0.021 | [4] 0.007 | [5] -0.059 | [6] 0.121 | [7] -0.006 | [8] 0.004 | [9] -0.004 | [10] 0.108 | [11] 0.038 | [12] 0.108 | [13] 0.019 | [14] -0.091 | [15] 0.095 | [16] -0.04 | [17] -0.024 | [18] 0.005 | [19] -0.036 | [20] 0.126

Two neighbouring entries out of the list so far:
CCT3 (UniProt P49368)
inactive: [1] -0.008 | [2] 0.026 | [3] 0.009 | [4] -0.014 | [5] -0.078 | [6] 0.003 | [7] -0.02 | [8] 0.008 | [9] -0.043 | [10] -0.007 | [11] 0.015 | [12] 0.023 | [13] 0.02 | [14] -0.001 | [15] 0.001 | [16] 0.019 | [17] -0.004 | [18] -0.015 | [19] -0.041 | [20] 0.026

CCDC47 (UniProt Q96A33)
inactive: [1] 0.168 | [2] 0.005 | [3] -0.005 | [4] -0.058 | [5] -0.031 | [6] 0.008 | [7] -0.034 | [8] 0.014 | [9] -0.081 | [10] 0.018 | [11] 0.03 | [12] -0.026 | [13] 0.067 | [14] 0.01 | [15] 0.024 | [16] -0.077 | [17] 0.008 | [18] 0.006 | [19] 0.036 | [20] -0.043

Later entries:

CCDC32 isoform 2 (UniProt Q9BV29)
inactive: [1] -0.005 | [2] 0.028 | [3] -0.024 | [4] 0.083 | [5] -0.001 | [6] -0.003 | [7] -0.051 | [8] 0.076 | [9] -0.014 | [10] -0.01 | [11] -0.054 | [12] -0.053 | [13] 0.014 | [14] -0.066 | [15] 0.064 | [16] -0.052 | [17] -0.015 | [18] -0.019 | [19] -0.007 | [20] 0.12

CCDC50 (UniProt Q8IVM0)
inactive: [1] -0.118 | [2] 0.034 | [3] -0.049 | [4] -0.001 | [5] -0.006 | [6] 0.096 | [7] 0.029 | [8] 0 | [9] -0.034 | [10] 0.027 | [11] -0.012 | [12] 0.02 | [13] 0.075 | [14] -0.002 | [15] 0.01 | [16] -0.068 | [17] -0.024 | [18] 0.006 | [19] -0.01 | [20] -0.099

CD58 (UniProt P19256)
inactive: [1] -0.067 | [2] 0.101 | [3] 0.009 | [4] 0.014 | [5] -0.053 | [6] 0.087 | [7] 0.077 | [8] 0.072 | [9] -0.025 | [10] 0 | [11] 0.009 | [12] 0.134 | [13] -0.01 | [14] -0.072 | [15] 0.048 | [16] -0.122 | [17] -0.033 | [18] -0.085 | [19] 0.055 | [20] 0.062

CCT8 (UniProt P50990)
inactive: [1] 0.048 | [2] -0.042 | [3] 0.004 | [4] -0.01 | [5] -0.058 | [6] 0.009 | [7] -0.021 | [8] 0.028 | [9] -0.004 | [10] -0.01 | [11] -0.004 | [12] -0.012 | [13] 0.004 | [14] -0.016 | [15] 0.011 | [16] -0.01 | [17] -0.013 | [18] 0.008 | [19] 0.016 | [20] -0.001

CAVIN2 (UniProt O95810)
inactive: [1] -0.003 | [2] 0.063 | [3] -0.015 | [4] 0.109 | [5] -0.035 | [6] -0.153 | [7] -0.072 | [8] -0.059 | [9] 0.073 | [10] -0.16 | [11] -0.071 | [12] -0.102 | [13] -0.179 | [14] 0.063 | [15] -0.112 | [16] 0.06 | [17] 0.059 | [18] 0.045 | [19] 0.095 | [20] -0.18

CD320 (UniProt Q9NPF0)
inactive: [1] 0.001 | [2] -0.043 | [3] 0.024 | [4] 0.03 | [5] -0.04 | [6] -0.013 | [7] -0.002 | [8] 0.017 | [9] 0.025 | [10] -0.006 | [11] 0.003 | [12] 0.046 | [13] -0.078 | [14] -0.054 | [15] 0.015 | [16] -0.046 | [17] -0.034 | [18] 0.016 | [19] -0.007 | [20] 0.067

CCS (UniProt O14618)
inactive: [1] -0.058 | [2] -0.032 | [3] -0.007 | [4] 0.038 | [5] -0.018 | [6] -0.025 | [7] 0.002 | [8] -0.018 | [9] -0.008 | [10] -0.037 | [11] -0.003 | [12] -0.017 | [13] 0.143 | [14] -0.011 | [15] 0.026 | [16] -0.174 | [17] 0.042 | [18] 0.047 | [19] -0.004 | [20] -0.01

CD97 (UniProt P48960)
inactive: [1] 0.074 | [2] -0.004 | [3] -0.012 | [4] 0.033 | [5] 0.181 | [6] -0.012 | [7] -0.009 | [8] -0.068 | [9] 0.034 | [10] -0.062 | [11] 0.07 | [12] 0.062 | [13] -0.013 | [14] -0.061 | [15] -0.058 | [16] 0.146 | [17] 0.012 | [18] -0.069 | [19] -0.039 | [20] -0.001

CAT (UniProt P04040)
inactive: [1] 0.011 | [2] -0.021 | [3] -0.025 | [4] 0.19 | [5] -0.02 | [6] 0 | [7] -0.007 | [8] 0.062 | [9] -0.022 | [10] 0.018 | [11] 0.009 | [12] 0.038 | [13] -0.015 | [14] -0.041 | [15] 0.015 | [16] -0.047 | [17] -0.006 | [18] -0.031 | [19] -0.016 | [20] 0.053

Reference: the supplement of paper PMC10849652
